Data from PubChem BioAssay (NCATS).
Inconclusive means that the source gave no clear call. Such entries were picked first, then a sample of the others. A call without a number means that no potency is given here. A potency beside an inconclusive call is a rough fit, not a confirmed value. The source made the active and inactive calls. Calls follow the shape of the full dose curve.

By UniProt entry, the sequences of proteins in these tests, tags left out. Where a name states a change or a piece, a line headed by the entry shows the natural chain unless it says otherwise.
UniProt Q8JUX6: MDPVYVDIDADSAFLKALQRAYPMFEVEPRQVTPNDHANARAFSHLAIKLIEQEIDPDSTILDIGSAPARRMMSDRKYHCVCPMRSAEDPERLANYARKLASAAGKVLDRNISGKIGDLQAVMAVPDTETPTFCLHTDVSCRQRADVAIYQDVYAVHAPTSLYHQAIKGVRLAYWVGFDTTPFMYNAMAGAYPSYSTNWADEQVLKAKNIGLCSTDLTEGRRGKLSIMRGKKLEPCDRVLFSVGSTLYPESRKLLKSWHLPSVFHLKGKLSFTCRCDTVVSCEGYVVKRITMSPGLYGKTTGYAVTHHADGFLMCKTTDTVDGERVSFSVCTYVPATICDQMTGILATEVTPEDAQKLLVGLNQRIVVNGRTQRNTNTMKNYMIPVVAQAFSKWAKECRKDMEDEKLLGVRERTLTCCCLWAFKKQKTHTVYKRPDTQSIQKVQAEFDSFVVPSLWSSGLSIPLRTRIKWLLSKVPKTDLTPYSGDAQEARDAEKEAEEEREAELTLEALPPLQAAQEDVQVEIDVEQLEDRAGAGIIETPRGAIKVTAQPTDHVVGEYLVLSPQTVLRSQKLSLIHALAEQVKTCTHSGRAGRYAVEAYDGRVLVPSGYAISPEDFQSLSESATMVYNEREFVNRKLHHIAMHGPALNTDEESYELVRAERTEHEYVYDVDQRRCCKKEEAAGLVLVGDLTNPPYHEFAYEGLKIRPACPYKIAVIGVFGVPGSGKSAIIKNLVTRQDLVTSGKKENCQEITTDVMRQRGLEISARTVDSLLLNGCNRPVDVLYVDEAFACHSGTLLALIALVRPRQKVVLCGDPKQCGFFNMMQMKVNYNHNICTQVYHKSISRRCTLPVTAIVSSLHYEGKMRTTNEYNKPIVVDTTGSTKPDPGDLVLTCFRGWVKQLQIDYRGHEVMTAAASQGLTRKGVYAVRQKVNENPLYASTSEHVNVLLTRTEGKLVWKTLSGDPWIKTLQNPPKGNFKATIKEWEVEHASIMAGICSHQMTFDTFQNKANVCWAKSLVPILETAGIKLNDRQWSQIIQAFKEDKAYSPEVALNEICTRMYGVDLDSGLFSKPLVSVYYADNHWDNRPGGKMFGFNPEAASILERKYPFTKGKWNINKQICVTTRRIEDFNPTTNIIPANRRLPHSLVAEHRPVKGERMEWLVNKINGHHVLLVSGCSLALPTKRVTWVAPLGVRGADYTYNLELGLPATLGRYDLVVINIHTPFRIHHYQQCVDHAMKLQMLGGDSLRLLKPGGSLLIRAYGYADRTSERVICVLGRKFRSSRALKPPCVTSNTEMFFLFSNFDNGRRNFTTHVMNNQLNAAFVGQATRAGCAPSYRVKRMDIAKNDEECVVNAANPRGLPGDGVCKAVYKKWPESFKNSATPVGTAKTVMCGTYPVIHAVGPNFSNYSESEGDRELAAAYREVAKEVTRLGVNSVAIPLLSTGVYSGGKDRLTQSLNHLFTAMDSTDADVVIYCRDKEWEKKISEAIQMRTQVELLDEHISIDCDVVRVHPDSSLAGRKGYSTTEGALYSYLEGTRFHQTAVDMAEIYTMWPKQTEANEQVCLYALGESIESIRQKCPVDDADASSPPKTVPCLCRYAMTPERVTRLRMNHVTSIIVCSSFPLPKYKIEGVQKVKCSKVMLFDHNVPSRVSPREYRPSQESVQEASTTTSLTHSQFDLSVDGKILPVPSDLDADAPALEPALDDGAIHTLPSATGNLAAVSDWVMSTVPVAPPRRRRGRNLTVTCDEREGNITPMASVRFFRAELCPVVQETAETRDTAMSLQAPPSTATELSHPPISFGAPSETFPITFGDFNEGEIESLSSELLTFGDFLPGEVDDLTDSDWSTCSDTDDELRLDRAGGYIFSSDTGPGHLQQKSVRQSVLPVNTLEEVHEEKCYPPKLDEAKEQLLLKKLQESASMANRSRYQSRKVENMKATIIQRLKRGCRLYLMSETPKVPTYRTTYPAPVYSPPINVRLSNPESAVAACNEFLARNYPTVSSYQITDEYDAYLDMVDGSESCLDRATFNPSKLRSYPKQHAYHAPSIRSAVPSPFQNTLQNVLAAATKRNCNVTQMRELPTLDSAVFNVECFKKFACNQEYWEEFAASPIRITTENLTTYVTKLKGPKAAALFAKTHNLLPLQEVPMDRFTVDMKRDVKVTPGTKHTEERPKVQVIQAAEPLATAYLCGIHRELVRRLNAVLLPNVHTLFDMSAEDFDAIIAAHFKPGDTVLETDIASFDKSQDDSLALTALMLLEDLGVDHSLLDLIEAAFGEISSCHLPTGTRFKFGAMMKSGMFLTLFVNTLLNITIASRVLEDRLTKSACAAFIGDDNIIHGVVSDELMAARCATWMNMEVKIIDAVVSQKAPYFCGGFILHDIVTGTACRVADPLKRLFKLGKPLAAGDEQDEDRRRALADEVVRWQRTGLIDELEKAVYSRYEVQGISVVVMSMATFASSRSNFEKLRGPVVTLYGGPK

Columns and labels:
[1] = molecular target: Polyprotein P1234 (Chikungunya virus (strain S27-African prototype)) (UniProt Q8JUX6); experiment: Selectivity profile for inhibitors of NSP2Pro chikungunya virus (CHIKV): Endogenous NS2/3 peptide Counterscreen (AID 1964103); also: nearly all actives have a fitted effect of over 55% in size
[2] = test system: Hepatitis C virus NS3/4A protease; experiment: Selectivity profile for inhibitors of NSP2Pro chikungunya virus (CHIKV): NS34A-HCV Counterscreen (AID 1964106); details: activity change, negative = inhibition: at 50.9 µM (top of the series) unless noted; also: nearly all actives have a fitted effect of over 55% in size
[3] = test system: Chikungunya virus nsP2 protease; experiment: Confirmatory qHTS for inhibitors of NSP2Pro chikungunya virus (CHIKV) (AID 1964105); also: nearly all actives have a fitted effect of over 75% in size
Potency is read from the fitted curve at half-maximal effect.

SMILES	Potency [1]	Potency [2]	Potency [3]
Cc1nc([C@](C)(O)CO)sc1-c1cnc(N)c(O[C@H](C)c2cc(F)ccc2-n2nccn2)c1	inactive	inactive	
CCOc1cc(CNc2ccc(O)cc2)ccc1OCc1ccc(Cl)cc1	inconclusive: 8.19 µM [inhibitor, full curve]	inconclusive: 0.146 µM [inhibitor, single point]	inactive
N#Cc1ccc(-c2ccc(CNc3ccc(N4CCCCC4)cc3)o2)cc1	inconclusive: 14.6 µM [inhibitor, partial curve]		inconclusive: 10 µM [inhibitor, partial curve]
Cn1nnnc1Sc1ncnc2scc(-c3cccc(N)c3)c12	inactive	inactive	
N#Cc1ccc(-c2ccc(C3Nc4ccccc4C(=O)N3O)o2)cc1 (centres undefined)	inactive		inconclusive: 14.2 µM [inhibitor, partial curve, poor fit]
Cc1ccc(-c2cc3n(n2)CCCN(C(=O)c2cc(CN4CCOCC4)on2)C3)o1	inconclusive: 16.3 µM [inhibitor, partial curve]	inconclusive: 23.1 µM [inhibitor, partial curve, poor fit]	
O=C(C1CC1)N1CCC(C(=O)N2CC(Oc3ccc4c(c3)OCO4)C2)CC1	inconclusive: 16.3 µM [inhibitor, partial curve]		active: 7.98 µM
O=[N+]([O-])c1ccc(S(=O)(=O)Nc2cnc3ccccc3c2)cc1	inactive	inactive	
CN1CCc2nc(C(=O)N[C@@H]3C[C@@H](C(=O)N(C)C)CC[C@@H]3NC(=O)C(=O)Nc3ccc(Cl)cn3)sc2C1	inactive		inactive

Single records, from the list above.
Cc1ccc(-c2cc3n(n2)CCCN(C(=O)c2cc(CN4CCOCC4)on2)C3)o1 is entered as Potency [1]: inconclusive: 16.3 µM [inhibitor, partial curve]; Potency [2]: inconclusive: 23.1 µM [inhibitor, partial curve, poor fit]
N#Cc1ccc(-c2ccc(C3Nc4ccccc4C(=O)N3O)o2)cc1 (centres undefined) is entered as Potency [1]: inactive; Potency [3]: inconclusive: 14.2 µM [inhibitor, partial curve, poor fit]
